# Some of the results follow.
# B1: Mermaid2 (Stilbonema majum) (protein)
# chain: MGSSHHHHHHSSGLVPRGSHMAASGWLRSPQGTVVKLYRRSLSWSKADEFCKDVDGRLVVDRTADMHLFLIKNVLKEKKSRVWVGLRRTAPHSRTWIWSDGTRQNEDDLNTNLWLRDEPNDAAGEEECALFMYSPWEKAWGLNDYLCRGGCRSYQFICEKGIR
# Legend:
# Experiment in all cases: glycan array binding signal (z-score within array); higher = stronger binding
# Conditions in all cases: glycan notation: IUPAC condensed, linker removed
# [1] = molecular target: Man(a1-2)Man(a1-3)[Man(a1-2)Man(a1-6)]Man(a1-6)[Man(a1-2)Man(a1-2)Man(a1-3)]Man
# How it was run: (§1)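 Glycan array data were curated from 3228 arrays in the Consortium for Functional Glycomics database and kept only where the protein sequence was available. Glycan names were converted to IUPAC-condensed notation, and columns mapping to the same glycan were averaged. The binding signal is a within-array Z-score, averaged across arrays of the same protein sequence at different concentrations or buffers and across linkers. Negative Z-scores can be read as non-binding.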
# [2] = molecular target: Man(a1-2)Man(a1-3)[Man(a1-2)Man(a1-6)]Man(a1-6)[Man(a1-2)Man(a1-2)Man(a1-3)]Man(b1-4)GlcNAc(b1-4)GlcNAc
# How it was run: as §1
# [3] = molecular target: Man(a1-2)Man(a1-3)[Man(a1-6)]Man(a1-6)[Man(a1-2)Man(a1-3)]Man(b1-4)GlcNAc(b1-4)GlcNAc
# How it was run: as §1
# [4] = molecular target: Man(a1-2)Man(a1-6)[Man(a1-3)]Man(a1-6)[Man(a1-2)Man(a1-2)Man(a1-3)]Man
# How it was run: as §1
# [5] = molecular target: Man(a1-2)Man(a1-6)[Man(a1-3)]Man(a1-6)[Man(a1-2)Man(a1-2)Man(a1-3)]Man(b1-4)GlcNAc(b1-4)GlcNAc
# How it was run: as §1
# Man(a1-3)[Man(a1-6)]Man = molecular target: Man(a1-3)[Man(a1-6)]Man
# How it was run: as §1
# [6] = molecular target: Man(a1-3)[Man(a1-6)]Man(a1-6)[Man(a1-2)Man(a1-3)]Man(b1-4)GlcNAc(b1-4)GlcNAc
# How it was run: as §1
# [7] = molecular target: Man(a1-3)[Man(a1-6)]Man(a1-6)[Man(a1-3)]Man
# How it was run: as §1
# [8] = molecular target: Man(a1-3)[Man(a1-6)]Man(a1-6)[Man(a1-3)]Man(b1-4)GlcNAc(b1-4)GlcNAc
# How it was run: as §1
# [9] = molecular target: Man(a1-3)[Man(a1-6)]Man(b1-4)GlcNAc(b1-4)GlcNAc
# How it was run: as §1
# [10] = molecular target: Man(a1-3)[Man(a1-6)]Man(b1-4)GlcNAc(b1-4)[Fuc(a1-6)]GlcNAc
# How it was run: as §1
# Man(a1-6)Man = molecular target: Man(a1-6)Man
# How it was run: as §1
# Man(b1-4)GlcNAc = molecular target: Man(b1-4)GlcNAc
# How it was run: as §1
# MurNAc(b1-4)GlcNAc = molecular target: MurNAc(b1-4)GlcNAc
# How it was run: as §1
# Neu5Ac(a2-3)Gal = molecular target: Neu5Ac(a2-3)Gal
# How it was run: as §1
# [11] = molecular target: Neu5Ac(a2-3)Gal(b1-3)GalNAc
# How it was run: as §1
# [12] = molecular target: Neu5Ac(a2-3)Gal(b1-3)GalNAc(b1-3)Gal(a1-4)Gal(b1-4)Glc
# How it was run: as §1
# [13] = molecular target: Neu5Ac(a2-3)Gal(b1-3)GalNAc(b1-4)Gal(b1-4)Glc
# How it was run: as §1
# [14] = molecular target: Neu5Ac(a2-3)Gal(b1-3)GalNAc(b1-4)[Neu5Ac(a2-3)]Gal(b1-4)Glc
# How it was run: as §1
# [15] = molecular target: Neu5Ac(a2-3)Gal(b1-3)GalNAc(b1-4)[Neu5Ac(a2-8)Neu5Ac(a2-3)]Gal(b1-4)Glc
# How it was run: as §1
# [16] = molecular target: Neu5Ac(a2-3)Gal(b1-3)GalNAc6S
# How it was run: as §1
# [17] = molecular target: Neu5Ac(a2-3)Gal(b1-3)GlcNAc
# How it was run: as §1
# [18] = molecular target: Neu5Ac(a2-3)Gal(b1-3)GlcNAc(b1-2)Man
# How it was run: as §1
# [19] = molecular target: Neu5Ac(a2-3)Gal(b1-3)GlcNAc(b1-2)Man(a1-3)[GlcNAc(b1-4)][Neu5Ac(a2-3)Gal(b1-3)GlcNAc(b1-2)Man(a1-6)]Man(b1-4)GlcNAc(b1-4)GlcNAc
# How it was run: as §1
# [20] = molecular target: Neu5Ac(a2-3)Gal(b1-3)GlcNAc(b1-2)Man(a1-3)[Neu5Ac(a2-3)Gal(b1-3)GlcNAc(b1-2)Man(a1-6)]Man(b1-4)GlcNAc(b1-4)GlcNAc
# How it was run: as §1
# [21] = molecular target: Neu5Ac(a2-3)Gal(b1-3)GlcNAc(b1-2)[Neu5Ac(a2-3)Gal(b1-3)GlcNAc(b1-4)]Man(a1-6)[Neu5Ac(a2-3)Gal(b1-3)GlcNAc(b1-2)Man(a1-3)]Man(b1-4)GlcNAc(b1-4)GlcNAc
# How it was run: as §1
# [22] = molecular target: Neu5Ac(a2-3)Gal(b1-3)GlcNAc(b1-3)Gal(b1-3)GlcNAc
# How it was run: as §1
# [23] = molecular target: Neu5Ac(a2-3)Gal(b1-3)GlcNAc(b1-3)Gal(b1-4)GlcNAc
# How it was run: as §1
# [24] = molecular target: Neu5Ac(a2-3)Gal(b1-3)GlcNAc(b1-3)GalNAc
# How it was run: as §1
# [25] = molecular target: Neu5Ac(a2-3)Gal(b1-3)GlcNAc(b1-6)GalNAc
# How it was run: as §1
# [26] = molecular target: Neu5Ac(a2-3)Gal(b1-3)GlcNAc6S
# How it was run: as §1
# [27] = molecular target: Neu5Ac(a2-3)Gal(b1-3)[Fuc(a1-4)]GlcNAc
# How it was run: as §1
# [28] = molecular target: Neu5Ac(a2-3)Gal(b1-3)[Fuc(a1-4)]GlcNAc(b1-3)Gal(b1-3)[Fuc(a1-4)]GlcNAc
# How it was run: as §1
# [29] = molecular target: Neu5Ac(a2-3)Gal(b1-3)[Fuc(a1-4)]GlcNAc(b1-3)Gal(b1-4)[Fuc(a1-3)]GlcNAc
# How it was run: as §1
# [30] = molecular target: Neu5Ac(a2-3)Gal(b1-3)[GlcNAc(b1-6)]GalNAc
# How it was run: as §1
# [31] = molecular target: Neu5Ac(a2-3)Gal(b1-3)[Neu5Ac(a2-6)]GalNAc
# How it was run: as §1
# [32] = molecular target: Neu5Ac(a2-3)Gal(b1-3)[Neu5Ac(a2-6)]GlcNAc(b1-3)[Fuc(a1-3)[Gal(b1-4)]GlcNAc(b1-6)]Gal(b1-4)Glc
# How it was run: as §1
# [33] = molecular target: Neu5Ac(a2-3)Gal(b1-3)]Neu5Ac(a2-3)Gal(b1-4)]GlcNAc
# How it was run: as §1
# Neu5Ac(a2-3)Gal(b1-4)Glc = molecular target: Neu5Ac(a2-3)Gal(b1-4)Glc
# How it was run: as §1
# [34] = molecular target: Neu5Ac(a2-3)Gal(b1-4)GlcNAc
# How it was run: as §1
# [35] = molecular target: Neu5Ac(a2-3)Gal(b1-4)GlcNAc(b1-2)Man
# How it was run: as §1
# [36] = molecular target: Neu5Ac(a2-3)Gal(b1-4)GlcNAc(b1-2)Man(a1-3)[GlcNAc(b1-4)][Neu5Ac(a2-3)Gal(b1-4)GlcNAc(b1-2)Man(a1-6)]Man(b1-4)GlcNAc(b1-4)GlcNAc
# How it was run: as §1
# [37] = molecular target: Neu5Ac(a2-3)Gal(b1-4)GlcNAc(b1-2)Man(a1-3)[Neu5Ac(a2-3)Gal(b1-4)GlcNAc(b1-2)Man(a1-6)]Man(b1-4)GlcNAc(b1-4)GlcNAc
# How it was run: as §1
# [38] = molecular target: Neu5Ac(a2-3)Gal(b1-4)GlcNAc(b1-2)Man(a1-3)[Neu5Ac(a2-3)Gal(b1-4)GlcNAc(b1-2)Man(a1-6)]Man(b1-4)GlcNAc(b1-4)[Fuc(a1-6)]GlcNAc
# How it was run: as §1
# [39] = molecular target: Neu5Ac(a2-3)Gal(b1-4)GlcNAc(b1-2)Man(a1-3)[Neu5Ac(a2-6)Gal(b1-4)GlcNAc(b1-2)Man(a1-6)]Man(b1-4)GlcNAc(b1-4)GlcNAc
# How it was run: as §1
binder,measurement,setting,value
B1,glycan array binding signal (z-score),[1],-0.786
same,glycan array binding signal (z-score),[2],0.726
same,glycan array binding signal (z-score),[3],-0.537
same,glycan array binding signal (z-score),[4],-0.197
same,glycan array binding signal (z-score),[5],-0.4
same,glycan array binding signal (z-score),Man(a1-3)[Man(a1-6)]Man,0.154
same,glycan array binding signal (z-score),[6],0.111
same,glycan array binding signal (z-score),[7],0.365
same,glycan array binding signal (z-score),[8],0.45
same,glycan array binding signal (z-score),[9],0.1
same,glycan array binding signal (z-score),[10],-0.73
same,glycan array binding signal (z-score),Man(a1-6)Man,0.39
same,glycan array binding signal (z-score),Man(b1-4)GlcNAc,5.41
same,glycan array binding signal (z-score),MurNAc(b1-4)GlcNAc,0.347
same,glycan array binding signal (z-score),Neu5Ac(a2-3)Gal,-0.332
same,glycan array binding signal (z-score),[11],-0.437
same,glycan array binding signal (z-score),[12],-0.77
same,glycan array binding signal (z-score),[13],-0.077
same,glycan array binding signal (z-score),[14],0.543
same,glycan array binding signal (z-score),[15],-0.608
same,glycan array binding signal (z-score),[16],-0.554
same,glycan array binding signal (z-score),[17],-0.412
same,glycan array binding signal (z-score),[18],-0.619
same,glycan array binding signal (z-score),[19],-0.7
same,glycan array binding signal (z-score),[20],2.25
same,glycan array binding signal (z-score),[21],-0.509
same,glycan array binding signal (z-score),[22],-0.329
same,glycan array binding signal (z-score),[23],0.154
same,glycan array binding signal (z-score),[24],-0.638
same,glycan array binding signal (z-score),[25],-0.189
same,glycan array binding signal (z-score),[26],-0.204
same,glycan array binding signal (z-score),[27],-0.173
same,glycan array binding signal (z-score),[28],1.72
same,glycan array binding signal (z-score),[29],3.06
same,glycan array binding signal (z-score),[30],-0.617
same,glycan array binding signal (z-score),[31],-0.341
same,glycan array binding signal (z-score),[32],-0.262
same,glycan array binding signal (z-score),[33],-0.44
same,glycan array binding signal (z-score),Neu5Ac(a2-3)Gal(b1-4)Glc,0.161
same,glycan array binding signal (z-score),[34],0.097
same,glycan array binding signal (z-score),[35],1.53
same,glycan array binding signal (z-score),[36],-0.654
same,glycan array binding signal (z-score),[37],-0.512
same,glycan array binding signal (z-score),[38],-0.44
same,glycan array binding signal (z-score),[39],0.602

# Exported with tabs: part of the list above
binder	measurement	setting	value
B1	glycan array binding signal (z-score)	[7]	0.365
same	glycan array binding signal (z-score)	[8]	0.45
same	glycan array binding signal (z-score)	[9]	0.1
